Source: PubChem BioAssay AID504804 (Drosophila RNAi Screening Center, 2011)

- Purpose: 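Knock-downs shielding fly cells from apoptosis caused by DNA damage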 (primary screen)
- System: Drosophila Kc cells
- Reagent: long dsRNA against Drosophila genes, 0.5 µg dsRNA per well
- Timing: 96 h (48 h knock-down, then 48 h drug)
- Treatment: doxorubicin 5 µg/ml for 48 h, added 48 h after dsRNA
- Read-out: 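Viability measured as cellular ATP by luminescence after 48 h knock-down then 48 h doxorubicin at 5 µg/ml; unnormalised plate counts for each replicate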
- Direction: raw ATP luminescence: higher = more viable cells, protection from doxorubicin
- Hit rule: 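z-score of 2 or more over plate mean in both duplicates, retained only when retests and separate dsRNAs confirm the protection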
The deposit covers about 19,000 reagents; shown is a random part of those that have a named target and a result. Of all reagents, 47 (0.25%) are marked active. 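Signals are raw, not normalised; exact z-scores behind calls not deposited; actives needed confirmation, so some wells reaching 2 SD are inactive.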 Names joined by + are all predicted targets of the reagent.

The first 3 records, ahead of the listing:
Target gene	DRSC id	SD above plate mean	raw ATP luminescence, replicate 1	raw ATP luminescence, replicate 2	outcome
BigH1	DRSC15491		71960	33823	inactive
l(3)62Be (retired record)	DRSC08231		52300	60000	inactive
IleRS-m	DRSC10506		70850	76273	inactive

Main list, from the first entry:
Target gene	DRSC id	SD above plate mean	raw ATP luminescence, replicate 1	raw ATP luminescence, replicate 2	outcome
BigH1	DRSC15491		71960	33823	inactive
l(3)62Be (retired record)	DRSC08231		52300	60000	inactive
IleRS-m	DRSC10506		70850	76273	inactive
AlaRS	DRSC01851		1.17e5	83370	inactive
l(3)72Dr	DRSC10478		37940	33013	inactive
CG32100	DRSC09725		62690	54693	inactive
CG32100	DRSC10331		73053	57910	inactive
metro	DRSC06341		84923	57283	inactive
Cpsf5	DRSC10374		37633	29850	inactive
Mst27D	DRSC00967		2.86e5	2.66e5	inactive
CTCF	DRSC11004		46857	41987	inactive
CG42824 + CG42823	DRSC13230		2.13e5	2.62e5	inactive
ppk	DRSC03595		41120	52503	inactive
Capa	DRSC15058	2 to 3 SD above plate mean			active
Tsen54	DRSC10527		58317	63093	inactive
CG32733 (retired record) + CG32797	DRSC17705		1.53e5	1.65e5	inactive
CG10527	DRSC04078		89257	54300	inactive
timeout	DRSC12950		2.07e5	1.76e5	inactive
timeout	DRSC17078		77650	50270	inactive
timeout	DRSC17079		77600	57340	inactive
timeout	DRSC17080		78110	62720	inactive
timeout	DRSC17081		92530	68170	inactive
CG10064	DRSC09689		74263	84370	inactive
CG13113	DRSC02211		47400	66780	inactive
CG9497	DRSC03234		1.01e5	65543	inactive
CG12715	DRSC19492		3.31e5	3.36e5	inactive
CG13248	DRSC11696		77353	65127	inactive
Sobp	DRSC07312		47867	47887	inactive
CG9150	DRSC03148		22027	36583	inactive
CG32669	DRSC18864		2.30e5	2.39e5	inactive
CG3277	DRSC00588		31437	28300	inactive
Uch	DRSC00797		1.01e5	90633	inactive
tef	DRSC07301		58873	77957	inactive
nord	DRSC04210		59233	49617	inactive
nord	DRSC04361		47620	54350	inactive
Spx	DRSC18720		28770	28720	inactive
Irbp18	DRSC10612		91980	1.58e5	inactive
Egm	DRSC07319		69153	60953	inactive
CG14947	DRSC02429		66137	61547	inactive
CG34249 (retired record)	DRSC09431		83957	85720	inactive
Nsun5	DRSC15835		56360	60567	inactive
Obp56i	DRSC05812		1.04e5	1.04e5	inactive
Pli	DRSC16792		34147	29660	inactive
CG1690	DRSC06636		48977	84380	inactive
CG8642	DRSC07228		34093	63843	inactive
CG30384	DRSC06032		44127	82463	inactive
CG30259	DRSC04164		56263	51457	inactive
CG30259	DRSC04165		44183	46927	inactive
Coq2	DRSC16516		61570	63600	inactive
dpr1	DRSC05906		83193	63477	inactive
Trm7-32	DRSC15741		38177	43637	inactive
Rpn12	DRSC11275		63697	48537	inactive
CG14626	DRSC18631		56980	56540	inactive
GstO2	DRSC10691		36070	37917	inactive
CG9536	DRSC03254		92527	73210	inactive
Obp50c + Obp50b	DRSC05482		87260	87857	inactive
CG8191	DRSC20091		3.35e5	2.95e5	inactive
CG4572	DRSC15603		42407	32490	inactive
CG34188	DRSC05549		1.03e5	1.10e5	inactive
nAChRalpha7	DRSC20078		3.32e5	3.14e5	inactive
nAChRalpha7	DRSC20081		3.27e5	3.09e5	inactive
CG40053 (retired record)	DRSC20833		2.34e5	2.54e5	inactive
mRpL43	DRSC04508		53357	57723	inactive
SmydA-7	DRSC07340		53290	62253	inactive
CG34051	DRSC01739		89070	52217	inactive
resilin	DRSC05627		1.85e5	1.26e5	inactive
CG17724	DRSC06687		66250	57197	inactive
CG15922	DRSC15128		69270	88580	inactive
hwt	DRSC19386		1.23e5	1.67e5	inactive
ATPsynE	DRSC15476		58487	34770	inactive
CG15756	DRSC19721		3.54e5	3.64e5	inactive
CG4660	DRSC18378		60870	50290	inactive
Sara	DRSC04653		63300	79037	inactive
CG5274	DRSC11774		25580	27480	inactive
yellow-d	DRSC04589		36413	59820	inactive
CG10366	DRSC02046		57473	60133	inactive
Cyp6d5	DRSC16634		53883	33570	inactive
Pex6 + Hao	DRSC06097		69943	67997	inactive
Pex6 + Hao	DRSC06704		39407	92763	inactive
ft	DRSC00819		1.19e5	85667	inactive
Lsm10	DRSC06250		36790	73860	inactive
Lrch	DRSC02996		81127	77787	inactive
Spn88Ea	DRSC17061		78040	54270	inactive
Cyp12a5	DRSC16621		40290	47400	inactive
Spf30	DRSC11976		52543	55493	inactive
ScsbetaG	DRSC11294		74680	81283	inactive
CR31958	DRSC00282		24857	27657	inactive
CG12259	DRSC14486		51800	44120	inactive
CG12213	DRSC14478		93757	33713	inactive
x16	DRSC00960		2.63e5	3.06e5	inactive
x16	DRSC03638		99027	63330	inactive
CG15601	DRSC19670		3.33e5	3.61e5	inactive
CG12984	DRSC11693		65753	76543	inactive
CG1137	DRSC12529		63437	64907	inactive
Obp19b	DRSC20536		2.93e5	3.10e5	inactive
CG5191	DRSC15733		58477	55957	inactive
CG5191	DRSC15734		58520	64120	inactive
BicC	DRSC02005		54570	53503	inactive
ND-B14.5A	DRSC18500		72560	67770	inactive
Vps16A	DRSC16422		24890	66590	inactive
Ptp36E	DRSC03021		76200	82853	inactive
MESK2	DRSC04258		71180	82160	inactive
yata	DRSC15408		52430	38680	inactive
eIF4E5	DRSC10975		65067	62830	inactive
CG4783	DRSC15644		1.94e5	2.02e5	inactive
modSP	DRSC16726		69660	55880	inactive
modSP	DRSC16857		79700	61810	inactive
